Assay results reported in patent US20160108128A1 (CANCER RESEARCH TECHNOLOGY, published 2016).
Substitutions are numbered along the chain they refer to. No constants are given. Whether binding was seen depends on the method and setting. Some results given as binding are weak or reduced against the parent protein; the word gives no strength.

Sequences of proteins named here, by UniProt entry; tags and fusion partners are left off. Residues count along the entry.
UniProt P78504, residues 34-1218: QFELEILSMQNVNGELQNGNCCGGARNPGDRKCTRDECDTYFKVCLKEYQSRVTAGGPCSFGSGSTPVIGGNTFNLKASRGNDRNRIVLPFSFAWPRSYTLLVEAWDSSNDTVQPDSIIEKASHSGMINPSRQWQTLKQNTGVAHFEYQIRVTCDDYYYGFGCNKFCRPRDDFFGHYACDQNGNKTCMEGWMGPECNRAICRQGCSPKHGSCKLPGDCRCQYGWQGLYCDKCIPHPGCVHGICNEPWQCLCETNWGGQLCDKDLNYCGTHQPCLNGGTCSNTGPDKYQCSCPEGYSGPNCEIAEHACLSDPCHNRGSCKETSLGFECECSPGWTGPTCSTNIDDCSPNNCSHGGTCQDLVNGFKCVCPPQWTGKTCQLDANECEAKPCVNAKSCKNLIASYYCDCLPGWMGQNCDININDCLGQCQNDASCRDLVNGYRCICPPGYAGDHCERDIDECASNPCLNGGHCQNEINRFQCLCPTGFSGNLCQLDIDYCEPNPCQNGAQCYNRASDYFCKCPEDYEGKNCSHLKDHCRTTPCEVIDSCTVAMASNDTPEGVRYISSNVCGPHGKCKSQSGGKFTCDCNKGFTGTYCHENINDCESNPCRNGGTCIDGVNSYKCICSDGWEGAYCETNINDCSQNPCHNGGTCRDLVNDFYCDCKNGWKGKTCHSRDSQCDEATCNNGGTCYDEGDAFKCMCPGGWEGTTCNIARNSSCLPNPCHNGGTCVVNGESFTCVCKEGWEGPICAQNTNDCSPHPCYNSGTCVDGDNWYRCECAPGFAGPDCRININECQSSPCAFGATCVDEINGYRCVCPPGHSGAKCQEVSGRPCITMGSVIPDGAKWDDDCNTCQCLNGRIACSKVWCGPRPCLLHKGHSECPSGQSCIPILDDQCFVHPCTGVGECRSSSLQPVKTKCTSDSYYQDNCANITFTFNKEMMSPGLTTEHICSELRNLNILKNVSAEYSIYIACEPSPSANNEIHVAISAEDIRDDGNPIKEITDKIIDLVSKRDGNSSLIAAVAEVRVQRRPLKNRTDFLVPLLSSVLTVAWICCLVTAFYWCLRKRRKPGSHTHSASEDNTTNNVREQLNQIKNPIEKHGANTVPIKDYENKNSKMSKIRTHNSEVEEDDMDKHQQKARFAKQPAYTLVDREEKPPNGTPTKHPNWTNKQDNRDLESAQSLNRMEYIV

B1: J1-183D variant 7 (antibody, human IgG1, V domains shown)
VH: QVQLVQSGAELKKPGASVKVSCKVSGYAFTDYAIHWVRQAPGQGLEWMGIINTYYGDSKYAQKFQGRVTMTVDTSTSTAYMELSSLRSEDTAVYYCARGYDGFAYWGQGTLVTVSS
VL: DIQMTQSPSSLSASVGDRVTITCRTSENIYSYLTWYQQKPGKAPKLLIYNAKTLASGVPSRFSGSGSGTDFTLTISSLQPEDFATYYCQHHYDIPWTFGGGTKLEIKR
notes: human IgG1; also called J1-183DV7; V7
B2: J1-183D variant 8 (antibody, human IgG1, V domains shown)
VH: B1 VH with L11V, V24A, A28T
VL: B1 VL
notes: human IgG1; also called J1-183DV8; V8
B3: J1-183D variant 9 (antibody, human IgG1, V domains shown)
VH: B1 VH with V37I, A61N, Q65K, G66D, T74K
VL: B1 VL with T53I, A55D
notes: human IgG1; also called J1-183DV9; V9
B4: J1-183D variant 11 (antibody, human IgG1, V domains shown)
VH: B1 VH
VL: B1 VL with T53I, A55D
notes: human IgG1; also called J1-183DV11; V11
B5: J1-183D variant 12 (antibody, human IgG1, V domains shown)
VH: B1 VH with L11V, V24A, A28T
VL: B1 VL with T53I, A55D
notes: human IgG1; also called J1-183DV12; V12
B6: J1-183D variant 13 (antibody, human IgG1, V domains shown)
VH: B1 VH with V37I, A61N, Q65K, G66D, T74K
VL: B1 VL with N50H, T53I, A55D
notes: human IgG1; also called J1-183DV13; V13
B7: J1-183D variant 14 (antibody, human IgG1, V domains shown)
VH: B1 VH with V37I
VL: B1 VL with N50H, T53I, A55D
notes: human IgG1; also called J1-183DV14; V14
B8: J1-183D variant 15 (antibody, human IgG1, V domains shown)
VH: B1 VH
VL: B1 VL with N50H, T53I, A55D
notes: human IgG1; also called J1-183DV15; V15
B9: J1-183D variant 16 (antibody, human IgG1, V domains shown)
VH: B1 VH with L11V, V24A, A28T
VL: B1 VL with N50H, T53I, A55D
notes: human IgG1; also called J1-183DV16; V16
B10: J1-183D chimeric (antibody, human IgG1, V domains shown)
VH: QVQLQQPGTELVRPGVSVKISCKVSGYAFTDYAIHWIMQSHAKSLEWIGIINTYYGDSKYNQKFKDKATMTVDKSSNTAYMELARLTSEDSAIYYCARGYDGFAYWGQGTLVTVSS
VL: DIQLTQSPASLSASVGETVTFTCRTSENIYSYLTWYQQKQGKSPQLLVYNAKILAAGVPSRFSGYGSGTQFSLKINSLQPEDFGTYYCQHHYDIPWTFGGGTKLEIK
notes: chimeric antibody with unaltered CDRs; vectors encode human IgG1

Target: T1, human Jagged 1, full length, on cells (human, UniProt P78504 34-1218)
T1 construct: whole, on cells; the cell is named under assay; also called hJ1; J1
Assay: FACS, 293-JAG1 cells

binding, binds:
B1
B2
B3
B4
B5
B6
B7
B8
B9
B10

Target: T1, human Jagged 1, full length, on cells
Assay: FACS, 293-JAG1 cells, anti-human-APC

binding, binds:
B1
B2
B3
B4
B5
B6
B7
B8
B9
B10
